# Laboratory results from patent publication US4278612A, “2-Chloro-2-alkyl substituted peroxyesters” (priority 1979, dated 1981).
# For at least one compound, name, drawing or mass did not settle the structure.
# Assay: Half-life data for 2-chloro-2-alkyl substituted peroxyesters (0.2M in Benzene)
# Format: physicochemical
# Source text: The following Table III illustrates the desirable half lifes obtainable with compositions of this invention:
# HALF-LIFE DATA FOR SELECTED 2-CHLORO-2-ALKYL
# SUBSTITUTED PEROXYESTERS (0.2M in Benzene)
compound,measurement,value
"CCC(Cl)(CC)C(=O)OOC(C)(C)CC(C)(C)C [TMBPCEB, 1,1,3,3 Tetramethylbutylperoxy-2-chloro-2-ethylbutyrate]",10 Hr Half-Life Temp,54.1 °C
